Experimental data from PubChem BioAssay AID540276 (National Center for Advancing Translational Sciences (NCATS), 2011).
Several values for one entry are separate records, joined by “and”; a condition that tells them apart may be missing. Equal entries are not always repeated. Screen size: about 300,000 compounds; about 5,400 (1.8%) were called active. This list was built around the results that the source calls inconclusive (neither active nor inactive); the mix of calls is not that of the screen. The call rests on the fitted dose curve; tested in HEK293 cells. A potency beside an inconclusive call is a rough fit, not a confirmed value. A structure can be active in one record and inactive in another.

Test: qHTS for inhibitors of binding or entry into cells for Marburg Virus
Details: Marburg virus pseudotyped entry inhibition, cell reporter; activity change, negative = inhibition: at 37.8 µM (top of the series) unless noted
On the % scale 0 is the no-effect control and ±100 the full control effect; potency means the concentration at half of the fitted maximal effect.

| SMILES | activity change, negative = inhibition | Potency |
| --- | --- | --- |
| C/C(CCN1CCCc2nc(C)c(C)cc21)=N\O[C@H](C)CN1CCCc2nc(C)c(C)cc21 | inactive: -41.3% [at 14.2 µM] | – |
| Cc1ccc(S(=O)(=O)NCCC(=O)OCC(=O)Nc2ccccc2Cl)cc1 | – | inconclusive: 5.62 µM [activator, single point] |
| COc1ccc(Cl)cc1NC(=O)Cn1nnc2sc3c(c2c1=O)CCC(C(C)(C)C)C3 (stereo unspecified) | inactive: 4.85% [at 46.1 µM] | – |
| C=C(C(=O)c1ccccc1)C(CC(=O)c1ccccc1)c1ccccc1 (stereo unspecified) | – | inconclusive: 20 µM [inhibitor, single point] |
| Cc1ccc(NC2(c3nnnn3-c3c(C)cccc3C)CCCCC2)cc1 | – | inconclusive: 29.1 µM [inhibitor, single point] |
| S=C(NCCc1ccccc1)Nc1c(Cl)cccc1Cl | – | inconclusive: 35.5 µM [inhibitor, partial curve, poor fit] |
| COc1ccc2c(C)cc(SCc3c(C)noc3C)nc2c1 | inactive: -19.6% | – |
| CC(=O)c1ccc(NC2=NS(=O)(=O)c3ccccc32)cc1 | – | inconclusive: 35.5 µM [activator, single point] |
| COc1ccc(NC(=O)c2ccc(S(=O)(=O)NCc3cccnc3)cc2)cc1 | inactive: 1.01% [at 46.1 µM] | – |
| O=C(O)CCC(=O)N1CCCC1C(=O)O (stereo unspecified) | – | inactive |
| CCCNC(=O)C(NS(=O)(=O)c1ccc2c(c1)c(=O)n(C)c(=O)n2C)c1ccccc1 (stereo unspecified) | inactive: -0.975% | – |
| Nc1nc(-c2ccc(Cl)cc2)nnc1-c1ccc(Br)cc1 | – | inconclusive: 1 µM [activator, full curve, poor fit] |
| S=C(NCc1cccnc1)Nc1cccc2ccccc12 | inactive: 3.7% | – |
| Cc1ccc(NC(=O)CN(C)C(=O)Nc2ccc(C)cc2)cc1 | – | inconclusive: 14.1 µM [activator, single point] |
| Cc1cc(=S)n(-c2ccccc2)n1C | inactive: 26.8% [at 46.1 µM] | – |
| O=C(CNC(=O)c1cccc(Cl)c1)Nc1ccc(Br)cc1C(=O)c1ccccc1 | – | inconclusive: 11.2 µM [inhibitor, partial curve, poor fit] |
| CC(=NCCc1c(C)[nH]c2ccc(C)cc12)C1=C(O)CC(c2ccccc2)CC1=O (stereo unspecified) | – | inconclusive: 4.47 µM [inhibitor, partial curve] |
| O=C(N/N=C1\CC2CC=CC12)c1ccc(O)cc1 (stereo unspecified) | inactive: 1.11% [at 46.1 µM] | – |
| Cc1ccc2[nH]c(C)c(CCNC(=O)c3cc4cc([N+](=O)[O-])ccc4oc3=O)c2c1 | – | inconclusive: 1.58 µM [inhibitor, full curve, poor fit] |
| CC(C)Oc1ccc(C2C(C(=O)c3ccco3)=C(O)C(=O)N2Cc2cccnc2)cc1 (stereo unspecified) | inactive: 25.5% | – |
| O=C(CCC(=O)c1ccccc1)Nc1cccnc1 | – | inconclusive: 31.6 µM [activator, single point] |
| CCC(=O)Nc1c(C#N)c2nc3ccccc3nc2n1C1CCCCC1 | – | inconclusive: 0.92 µM [inhibitor, partial curve, poor fit] |
| Cc1cc(C)c(S(=O)(=O)Nc2cc(-c3cn4ccccc4n3)ccc2C)cc1C | inactive: -8.35% [at 46.1 µM] | – |

Individual results from the results shown:
For activity change, negative = inhibition, O=C(N/N=C1\CC2CC=CC12)c1ccc(O)cc1 (stereo unspecified) is entered as inactive: 1.11% [at 46.1 µM]
For Potency, C=C(C(=O)c1ccccc1)C(CC(=O)c1ccccc1)c1ccccc1 (stereo unspecified) is entered as inconclusive: 20 µM [inhibitor, single point]

More results follow.

| SMILES | activity change, negative = inhibition | Potency |
| --- | --- | --- |
| Cc1cc(=O)n2c(C(=O)Nc3ccc(C)c(Cl)c3)c(C(=O)Nc3ccccc3)sc2n1 | inactive: -7.59% [at 46.1 µM] | – |
| CCC1=Nc2cc(C(=O)NCCCOC)ccc2Sc2ccccc21 | – | inconclusive: 0.562 µM [inhibitor, full curve, poor fit] |
| CCOc1ccc(NC(=O)Nc2cccs2)cc1 | – | inconclusive: 0.058 µM [activator, full curve, poor fit] |
| COc1ccc(C(=O)N(Cc2sccc2C)C2CCS(=O)(=O)C2)cc1Cl (stereo unspecified) | inactive: -15.6% [at 46.1 µM] | – |
| COc1cc(CN2CCC(N3CCC(C(=O)N4CCCC4)CC3)CC2)cc2c1OCO2 | – | inconclusive: 11.2 µM [inhibitor, partial curve, poor fit] |
| CC(NC(=O)CN(c1cccc(C(F)(F)F)c1)S(=O)(=O)c1ccc(Cl)c([N+](=O)[O-])c1)c1ccccc1 (stereo unspecified) | – | inconclusive: 11.2 µM [inhibitor, partial curve, poor fit] |
| O=C(COC(=O)c1ccccn1)c1ccc(Br)cc1 | inactive: 15.2% | – |
| CCCCCCCCCCOC(=O)C[N+](C)(C)C/C=C(/C)Cl | – | inconclusive: 1.03 µM [activator, single point] |
| O=C(NCCO)/C(=C/c1ccco1)NC(=O)c1ccco1 | – | inconclusive: 1.26 µM [inhibitor, single point] |
| Cc1ccc(C(=O)NNC(=O)c2ccc(-n3cncn3)c([N+](=O)[O-])c2)cc1 | – | inconclusive: 0.562 µM [inhibitor, full curve, poor fit] |
| COc1ccc(S(=O)(=O)N2CCC3(CC2)CC(=O)c2ccccc2O3)cc1C | – | inconclusive: 20 µM [activator, single point] |
| Cc1nc(S[C@@H]2C=CS(=O)(=O)C2)n[nH]1 | inactive: 0.0884% | – |
| Cc1ccc2[nH]c(=O)c(C(c3nnnn3C3CCCC3)N(Cc3cccnc3)Cc3ccco3)cc2c1 (stereo unspecified) | – | inconclusive: 25.1 µM [inhibitor, single point] |
| O=C1/C(=C/c2cccs2)NC(=S)N1C1CC1 | inactive: 4.28% | – |
| O=C(/C=C/c1cccc(Br)c1)NCC1CCCCC1 | – | inconclusive: 0.447 µM [inhibitor, partial curve, poor fit] |
| Cc1ccc(S(=O)(=O)N(CC2CO2)c2cccc([N+](=O)[O-])c2)cc1 (stereo unspecified) | – | inconclusive: 35.5 µM [inhibitor, single point] |
| O=C(CCNC(=O)c1ccco1)Nc1ccc(OC(F)F)cc1 | – | inconclusive: 35.5 µM [activator, single point] |
| CC(Cc1cccs1)NC(=O)c1cccs1 (stereo unspecified) | – | inconclusive: 2 µM [activator, partial curve, poor fit] |
| O=C(/C=C/c1ccccc1)COC(=O)c1ccccc1 | – | inconclusive: 35.5 µM [inhibitor, single point] |
| O=C(Nc1ccc(Cl)cc1)OCc1cc(-c2ccccc2Cl)on1 | inactive: -4.73% | – |
| C=CCn1c(SCC(=O)Nc2sc(C)c(C)c2C(=O)OCC)nnc1-c1sc(N)nc1C | – | inconclusive: 22.4 µM [inhibitor, single point] |
| Cc1ccc(/C=N\NC(=O)C2CN(S(=O)(=O)c3ccccc3)CCN2S(=O)(=O)c2ccccc2)cc1 (stereo unspecified) | – | inconclusive: 8.91 µM [inhibitor, partial curve, poor fit] |
